Measurements taken from PubChem BioAssay AID504847 (National Center for Advancing Translational Sciences (NCATS), 2011).
Values joined by “and” are separate entries in the source; they are usually repeats but may differ in a detail not shown here. Identical values can stand only once. The campaign covered roughly 400,000 compounds. About 3,700 (0.93%) were called active. This list was built around the results that the source calls inconclusive (neither active nor inactive); the mix of calls is not that of the screen. Calls follow the shape of the dose curve; as a rule, active = well fitted inhibition curve with a large enough effect; inconclusive = small, poorly fitted or top-dose-only effect, or another doubt; inactive = no such curve, though single readings can be large or run the other way. Potencies beside an inconclusive call are fits to weak or partial responses and may not hold up.

Chains of the proteins cited; added tags and fusions are not shown. Lines headed by an entry give the natural chain unless they say otherwise; changes in a name come on top.
UniProt P11473: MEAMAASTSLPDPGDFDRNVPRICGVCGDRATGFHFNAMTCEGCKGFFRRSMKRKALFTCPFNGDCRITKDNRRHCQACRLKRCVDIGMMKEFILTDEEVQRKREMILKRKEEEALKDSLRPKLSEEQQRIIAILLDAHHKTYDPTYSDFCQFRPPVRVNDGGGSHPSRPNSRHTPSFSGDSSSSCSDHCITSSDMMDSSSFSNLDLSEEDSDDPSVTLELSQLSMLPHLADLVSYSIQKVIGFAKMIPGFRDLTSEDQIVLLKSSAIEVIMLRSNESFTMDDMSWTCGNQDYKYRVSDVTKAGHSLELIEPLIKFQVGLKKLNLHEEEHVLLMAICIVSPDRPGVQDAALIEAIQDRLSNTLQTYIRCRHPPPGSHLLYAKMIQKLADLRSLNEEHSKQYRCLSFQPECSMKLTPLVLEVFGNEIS

The compounds below were run against Vitamin D3 receptor (Homo sapiens) (UniProt P11473) (assay: Inhibitors of the vitamin D receptor (VDR): qHTS). Conditions: VDR-SRC2-3 peptide fluorescence polarization, 2 h; max response, negative = inhibition: hits give low values.
Method in brief: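 VDR–SRC2-3 interaction, FP format. Cmpds 23 nl via pintool, brief spin, 2 h ambient incubation.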
% is scaled to controls: 0 for no effect and ±100 for the full control effect; potency is read from the fitted curve at half-maximal effect.

Potency, inconclusive:
COc1ccc(-c2ccc(CCC(=O)O)o2)cc1 35.5 µM [inhibitor, full curve, poor fit]
COc1cc(/C=C2\COC/C(=C\c3ccc(O)c(OC)c3)C2=O)ccc1O 15.8 µM [inhibitor, full curve, poor fit]
CC(C)(C)c1ccc(/C=N/Nc2nncn2N)cc1 50.1 µM [inhibitor, partial curve, poor fit]
Cc1cc(C)n2c(Nc3ccccc3C)c(-c3cccs3)nc2n1 25.1 µM [inhibitor, single point]
O=C(O)/C=C/c1ccc(S(=O)(=O)NCc2cccnc2)cc1 11.2 µM [inhibitor, partial curve, poor fit]
Cc1ccc(S(=O)(=O)N(CC(O)Cn2c3ccccc3c3ccccc32)c2cccc(C(=O)N(C)C)c2)cc1 (configuration not stated) 89.1 µM [inhibitor, single point]
CNCc1ccccc1Sc1ccc(O)c(O)c1 100 µM [inhibitor, single point]
O=C(Cn1cnc2c(OCc3ccccc3)ncnc21)NCc1ccccc1 89.1 µM [inhibitor, single point]
O=C(CC1C(=O)NCCN1Cc1ccc(Cl)c(F)c1)NC1CCCCC1 (configuration not stated) 89.1 µM [inhibitor, single point]
CCOC(=O)N1CCN(C(=O)C2CCCN(c3ncnc4c3sc3cccc(F)c34)C2)CC1 (configuration not stated) 89.1 µM [inhibitor, single point]
Cc1c(C)c2cc3c4c(oc3c(C)c2oc1=O)CCCC4 28.2 µM [inhibitor, single point]
Cc1nc(C)c(-c2csc(Nc3ccc(O)c(C(=O)O)c3)n2)s1 70.8 µM [inhibitor, partial curve, poor fit]
O=C(NCc1cccnc1)c1ccc(Cl)c(S(=O)(=O)N2CCCCCC2)c1 79.4 µM [inhibitor, partial curve, poor fit]
CN(CCc1ccccc1)C(=O)c1cccc(NC(=O)Cc2cccc(NC(=O)C3CCCN(C(=O)C4CCC4)C3)c2)c1 (configuration not stated) 100 µM [inhibitor, single point]
BrC(=C\c1ccccc1)/C=N/Nc1nc2ccccc2[nH]1 50.1 µM [inhibitor, single point]
CCCCCOC(=O)c1[nH]c2c(c1C)C(=O)C(C(=O)OC)C(C)C2 (configuration not stated) 14.1 µM [inhibitor, partial curve, poor fit]
COC(=O)Cn1c2ccc(C)cc2c2nc(C)sc21 79.4 µM [inhibitor, partial curve]
O=C1NC(=S)NC(=O)C1=Cc1ccccc1C(=O)O 70.8 µM [inhibitor, partial curve]
O=C(O)c1ccc2nc3c(nc2c1)-c1ccccc1C3=O 89.1 µM [inhibitor, single point]
O=C(NC1(O)C(=O)c2ccccc2C1=O)c1c(Cl)cccc1Cl 7.94 µM [inhibitor, full curve, poor fit]
O=C1C=CC(=O)c2c(O)c(N3CCN(CCOCCO)CC3)c(Br)c(O)c21 11.2 µM [inhibitor, partial curve, poor fit]
O=C1NN(c2ccc(Cl)cc2)C(=O)/C1=C\c1ccc(-c2cccc(C(=O)O)c2)o1 39.8 µM [inhibitor, single point]
CCCCN(CCCC)C(=O)C1CC=CCC1C(=O)O (configuration not stated) 70.8 µM [inhibitor, single point]
CCNC(=S)Nc1cccc(S(=O)(=O)NC2=NCCC2)c1 89.1 µM [inhibitor, single point]
CCOC(=O)C1(C)/C(=N/Nc2cccc(Cl)c2)C(=O)C(=O)N1c1ccccc1 (configuration not stated) 70.8 µM [inhibitor, partial curve, poor fit]
O=C(N/N=C/c1ccco1)c1cccc(N2Cc3ccccc3C2)c1 63.1 µM [inhibitor, partial curve, poor fit]
CC(=O)c1ccc(S(=O)(=O)N2CCNCC2)cc1 20 µM [inhibitor, partial curve, poor fit]
COc1ccc2c(c1)CCC/C2=N\Nc1nc(C(=O)NN)cs1 70.8 µM [inhibitor, partial curve, poor fit]
CCOc1ccc(/C(O)=C2/C(=O)C(=O)N(c3ncccn3)C2c2ccc(Cl)cc2)cc1 (configuration not stated) 79.4 µM [inhibitor, partial curve, poor fit]
CCN(CC)c1ccc(C=C2C(=O)OC(c3ccccc3)OC2=O)cc1 (configuration not stated) 89.1 µM [inhibitor, single point]
CCOC(=O)c1ccc(-n2c(CCC(=O)O)ccc2-c2ccc(Br)cc2)cc1 70.8 µM [inhibitor, single point]
CC1=NN(C(N)=S)C(=O)C1N=Nc1ccc(Cl)cc1 (configuration not stated) 70.8 µM [inhibitor, partial curve]
CC1(C)CC(NC(=O)c2cc([N+](=O)[O-])cc([N+](=O)[O-])c2)CC(C)(C)N1 6.31 µM [inhibitor, partial curve, poor fit]
CCC1CCCCN1C(=O)CCCOc1ccccc1 (configuration not stated) 31.6 µM [inhibitor, partial curve, poor fit]
CCn1cnc2c1c(=O)n(Cc1cccc(Br)c1)c(=O)n2Cc1ccccc1 70.8 µM [inhibitor, single point]
O=C(O)c1cccc(S(=O)(=O)NNc2ccccc2C(F)(F)F)c1 56.2 µM [inhibitor, partial curve, poor fit]
CCOc1ccc(Br)cc1S(=O)(=O)N1CCCC1 2.82 µM [inhibitor, partial curve, poor fit]
CCc1ccc(OCC2c3cc(OC)c(OC)cc3CCN2C(C)=O)cc1 (configuration not stated) 89.1 µM [inhibitor, single point]
CC(c1ccccc1)C(NC(=O)OCC1c2ccccc2-c2ccccc21)C(=O)O (configuration not stated) 2.82 µM [inhibitor, full curve, poor fit]
Cc1ccc(CS(=O)(=O)CCC(=O)NCCc2ccccc2)cc1 70.8 µM [inhibitor, partial curve]
CS(=O)(=O)c1ccc(C(=O)OCC(=O)Nc2cc(C(F)(F)F)ccc2Cl)cc1[N+](=O)[O-] 70.8 µM [inhibitor, partial curve, poor fit]
O=C(Nc1cc(NC(=O)c2ccccc2)c(C(=O)O)cc1C(=O)O)c1ccccc1 25.1 µM [inhibitor, partial curve, poor fit]
O=C(CCn1c(=O)[nH]c2ccccc2c1=O)N1CC=C(c2ccccc2)CC1 79.4 µM [inhibitor, single point]
O=C(CNC(=O)OCc1ccccc1)Oc1ccc2ccc(=O)oc2c1 39.8 µM [inhibitor, partial curve, poor fit]
COc1ccc(C2NC(=S)NC3=C2CCc2ccccc23)cc1OC (configuration not stated) 89.1 µM [inhibitor, single point]
COc1ccc(C2=CC3=C(Br)C(=O)C(C)(OC(=O)C4CCCC4)C(=O)C3=CO2)cc1 (configuration not stated) 44.7 µM [inhibitor, partial curve, poor fit] and 79.4 µM [inhibitor, single point]

Potency, active:
COc1ccc(CNC(=O)C[C@H]2C[C@H](C(=O)N3CCCCC3)[C@@]3(CCc4ccccc4)c4[nH]c5cc(-c6ccco6)ccc5c4CCN3C2=O)cc1OC 89.1 µM
C=CC(=O)N1C/C(=C/c2ccc(F)cc2)C(=O)/C(=C\c2ccc(F)cc2)C1 10 µM

Max response, negative = inhibition, inactive:
CC(C)(C)c1ccc(S(=O)(=O)N2CCN(c3nc(-c4ccccc4)nc4ccccc34)CC2)cc1 2.29%
COc1ccc(N2CCN(C(=O)c3ccc(CS(=O)(=O)c4ccc(OC)cc4)o3)CC2)cc1 -6.17%
Cc1cccc(NC(=S)N(CCCN2CCOCC2)Cc2cn(C)c3ccccc23)c1 -13.3%
Cc1ccc(CN2C(=O)c3ccccc3Sc3ccc(C(=O)NCc4ccco4)cc32)cc1 -9.94%
Cc1ccc(CNC(=O)c2sc3nc4c(c(C(F)(F)F)c3c2N)CCC4)cc1 -10.1%
N#C/C(=C\c1ccc(-c2cccc(Cl)c2)o1)C(=O)Nc1cccc2cccnc12 -15.6%
Cc1ccc(C(C(=O)NC(C)(C)C)N(C(=O)c2csnn2)c2cccc(F)c2)o1 (configuration not stated) -4.56%
CCOC(=O)N1CCN(C(=O)COc2ccc([N+](=O)[O-])cc2)CC1 -12.5%
COc1cc(/C=N/NC(=O)C(C)Nc2n[nH]c(=O)[nH]c2=O)cc(OC)c1O (configuration not stated) -19.4%
COCCN(C(=O)CSc1nnc(-c2ccc(C(C)(C)C)cc2)n1N)c1c(N)n(CC(C)C)c(=O)[nH]c1=O 13.5%
O=C(CN(C(=O)CNC(=O)c1ccco1)c1cccc(F)c1)NC1CCCCC1 14%
O=C(NCc1ccccc1)c1cc2sccc2n1Cc1ccc(Cl)cc1 -5.06%
CCCN(C(=O)Cn1ncc2c1-c1ccccc1OC2)c1cccc(C)c1 -3.55%
O/N=C/c1ccc(-c2ccccc2OC(F)(F)F)o1 -11.4%
